Results are given in words; binding and its absence hold for the method and conditions named. Some results given as binding are weak or reduced against the parent protein; the word gives no strength.
How the values were obtained:
[1] = target: T1, ARF7 (Arabidopsis thaliana) (UniProt P93022); test: two-hybrid; IAA15 in pGAD424 (AD), ARF7 or ARF19 in pAS2-1 (BD), co-transformed into yeast strain pJ69-4A; growth at 30°C; HIS3 reporter on SD -Leu/-Trp/-His with 25 mM 3-AT
T1 sequence: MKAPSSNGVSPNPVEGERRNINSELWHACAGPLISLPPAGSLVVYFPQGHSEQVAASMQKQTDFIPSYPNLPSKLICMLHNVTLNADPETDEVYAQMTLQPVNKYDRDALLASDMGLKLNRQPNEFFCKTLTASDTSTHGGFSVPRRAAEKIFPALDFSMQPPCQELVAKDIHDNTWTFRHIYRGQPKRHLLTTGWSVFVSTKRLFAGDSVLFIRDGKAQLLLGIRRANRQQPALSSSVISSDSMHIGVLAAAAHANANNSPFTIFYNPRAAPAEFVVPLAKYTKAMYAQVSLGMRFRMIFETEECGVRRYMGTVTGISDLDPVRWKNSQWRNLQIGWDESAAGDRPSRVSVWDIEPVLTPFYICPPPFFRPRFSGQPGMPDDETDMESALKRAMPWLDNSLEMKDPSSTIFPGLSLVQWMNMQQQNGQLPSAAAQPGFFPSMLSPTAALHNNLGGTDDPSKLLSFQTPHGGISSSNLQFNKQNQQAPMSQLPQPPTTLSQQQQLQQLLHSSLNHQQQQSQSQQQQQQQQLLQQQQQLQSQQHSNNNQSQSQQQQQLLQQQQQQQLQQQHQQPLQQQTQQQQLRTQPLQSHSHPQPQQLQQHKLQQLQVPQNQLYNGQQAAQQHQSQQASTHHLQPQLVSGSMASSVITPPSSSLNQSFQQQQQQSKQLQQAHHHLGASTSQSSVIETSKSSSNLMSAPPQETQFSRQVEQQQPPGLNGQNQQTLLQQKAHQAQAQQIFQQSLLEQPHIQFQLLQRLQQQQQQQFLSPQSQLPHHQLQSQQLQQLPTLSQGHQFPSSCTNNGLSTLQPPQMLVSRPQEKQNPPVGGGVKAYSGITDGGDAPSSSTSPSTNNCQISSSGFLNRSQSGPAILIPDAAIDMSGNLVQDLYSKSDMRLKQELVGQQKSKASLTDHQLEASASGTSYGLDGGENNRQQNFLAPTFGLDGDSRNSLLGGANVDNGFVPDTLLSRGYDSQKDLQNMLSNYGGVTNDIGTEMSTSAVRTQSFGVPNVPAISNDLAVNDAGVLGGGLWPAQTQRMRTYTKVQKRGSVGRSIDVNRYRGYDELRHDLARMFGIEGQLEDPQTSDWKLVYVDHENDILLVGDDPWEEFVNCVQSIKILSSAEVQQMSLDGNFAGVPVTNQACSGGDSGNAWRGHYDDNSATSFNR

[2] = target: T2, ARF19 (Arabidopsis thaliana) (UniProt Q8RYC8); test: as above
T2 sequence: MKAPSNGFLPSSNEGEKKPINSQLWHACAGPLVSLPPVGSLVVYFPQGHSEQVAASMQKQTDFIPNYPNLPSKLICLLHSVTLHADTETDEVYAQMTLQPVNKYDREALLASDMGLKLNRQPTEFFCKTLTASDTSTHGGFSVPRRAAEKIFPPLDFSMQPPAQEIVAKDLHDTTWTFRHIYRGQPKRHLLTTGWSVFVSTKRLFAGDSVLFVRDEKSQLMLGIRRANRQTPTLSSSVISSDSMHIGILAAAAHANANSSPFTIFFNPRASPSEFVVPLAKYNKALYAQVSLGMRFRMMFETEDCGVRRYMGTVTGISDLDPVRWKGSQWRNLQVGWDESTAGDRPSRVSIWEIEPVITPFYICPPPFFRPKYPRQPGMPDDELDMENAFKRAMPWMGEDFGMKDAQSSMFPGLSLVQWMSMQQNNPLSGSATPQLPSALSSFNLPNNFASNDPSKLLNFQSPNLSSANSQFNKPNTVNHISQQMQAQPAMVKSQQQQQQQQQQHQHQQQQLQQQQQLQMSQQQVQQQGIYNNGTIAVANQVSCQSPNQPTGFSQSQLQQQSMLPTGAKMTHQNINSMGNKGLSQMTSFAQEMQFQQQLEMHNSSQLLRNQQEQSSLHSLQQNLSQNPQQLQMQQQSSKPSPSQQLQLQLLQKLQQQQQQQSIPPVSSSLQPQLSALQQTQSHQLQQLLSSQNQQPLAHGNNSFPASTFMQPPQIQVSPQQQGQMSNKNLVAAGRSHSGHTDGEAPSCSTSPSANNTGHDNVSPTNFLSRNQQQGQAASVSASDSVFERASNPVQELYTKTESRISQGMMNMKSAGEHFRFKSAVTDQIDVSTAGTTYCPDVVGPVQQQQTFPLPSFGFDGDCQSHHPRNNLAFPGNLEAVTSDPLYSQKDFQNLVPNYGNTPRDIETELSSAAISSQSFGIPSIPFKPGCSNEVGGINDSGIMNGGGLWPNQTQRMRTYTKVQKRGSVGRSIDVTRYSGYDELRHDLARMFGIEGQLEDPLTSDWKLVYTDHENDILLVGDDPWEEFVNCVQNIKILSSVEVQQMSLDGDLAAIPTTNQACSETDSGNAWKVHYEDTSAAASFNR

binding [1]: binds
binding [2]: binds
B1: IAA15 (protein, UniProt Q9C966 1-179)
chain: MSPEEYVRVWPDSGDLGGTELTLALPGTPTNASEGPKKFGNKRRFLETVDLKLGEAHENNYISSMVTNDQLVGWPPVATARKTVRRKYVKVALDGAAYLRKVDLGMYDCYGQLFTALENMFQGIITICRVTELERKGEFVATYEDKDGDLMLVGDVPWMMFVESCKRMRLMKTGDAIGL

Source: article PMC7434933
